# Article PMC13315262
# Chains of the proteins cited; added tags and fusions are not shown.
# UniProt Q96LB1: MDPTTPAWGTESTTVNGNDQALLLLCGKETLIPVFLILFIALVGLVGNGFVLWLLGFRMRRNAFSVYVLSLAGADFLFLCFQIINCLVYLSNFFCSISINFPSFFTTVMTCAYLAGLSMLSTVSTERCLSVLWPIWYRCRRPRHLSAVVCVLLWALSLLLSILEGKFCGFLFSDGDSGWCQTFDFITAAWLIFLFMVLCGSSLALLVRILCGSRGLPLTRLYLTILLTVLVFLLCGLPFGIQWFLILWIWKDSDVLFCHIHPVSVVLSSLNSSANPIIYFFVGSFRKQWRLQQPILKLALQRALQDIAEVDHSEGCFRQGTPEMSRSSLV
# No constants are given. Whether binding was seen depends on the method and setting. Some results given as binding are weak or reduced against the parent protein; the word gives no strength.
# Target: MAS-related GPR family member X2 (MRGPRX2), FLAG-tagged, on transfected HEK293T cells (human) (UniProt Q96LB1)
# Assay: flow cytometry on cells; monomeric V5-tagged nanobody at the indicated concentrations, 1 hour (methods: 1-2 h) at 4 °C, on HEK293T cells transiently transfected with human FLAG-MRGPRX2 or empty vector (pcDNA); HBS + 0.1% BSA + 2 mM calcium; detected with anti-V5-APC; specific MRGPRX2 binding normalized to 1 μM WT; only the binder purified
row,binding,Binder
1,binds weakly,"Nanobody Sim4784 R101E, monomeric (VHH) VHH: QVQLQESGGGLVQAGGSLRLSCAASGTISPPTYMGWYRQAPGKERELVASIGAGSNTNYADSVKGRFTISRDNAKNTVYLQMNSLKPEDTAVYYCAAIFGELWYHLYWGQGTQVTVSS"
2,binds weakly,"Nanobody Sim4784 W103G, monomeric (VHH) VHH: QVQLQESGGGLVQAGGSLRLSCAASGTISPPTYMGWYRQAPGKERELVASIGAGSNTNYADSVKGRFTISRDNAKNTVYLQMNSLKPEDTAVYYCAAIFGRLGYHLYWGQGTQVTVSS"
3,binds weakly,"Nanobody Sim4784 W103D, monomeric (VHH) VHH: QVQLQESGGGLVQAGGSLRLSCAASGTISPPTYMGWYRQAPGKERELVASIGAGSNTNYADSVKGRFTISRDNAKNTVYLQMNSLKPEDTAVYYCAAIFGRLDYHLYWGQGTQVTVSS"
